US20100137275A1 (IPSEN PHARMA S.A.S., priority 2007, published 2010)
Some of these results come from one statement about several compounds together.

Biological target: T1, purified recombinant Cdc25-C enzyme (MBP-Cdc25C protein) (Homo sapiens, UniProt P30307)
T1 construct: made in house
T1 sequence (P30307 1-473): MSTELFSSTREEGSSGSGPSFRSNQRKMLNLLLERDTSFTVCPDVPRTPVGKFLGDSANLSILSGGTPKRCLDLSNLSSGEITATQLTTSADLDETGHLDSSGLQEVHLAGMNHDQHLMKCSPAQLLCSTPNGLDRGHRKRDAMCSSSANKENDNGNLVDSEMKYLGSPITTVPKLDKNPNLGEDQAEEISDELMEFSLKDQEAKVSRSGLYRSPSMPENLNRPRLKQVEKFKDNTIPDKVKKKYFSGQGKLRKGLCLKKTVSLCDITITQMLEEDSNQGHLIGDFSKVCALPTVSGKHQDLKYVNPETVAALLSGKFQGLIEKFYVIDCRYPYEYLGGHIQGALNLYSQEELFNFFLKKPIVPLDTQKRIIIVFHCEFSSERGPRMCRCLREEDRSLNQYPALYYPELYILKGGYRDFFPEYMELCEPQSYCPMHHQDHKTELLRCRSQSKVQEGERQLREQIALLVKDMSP
Test: Phosphatase activity of the purified recombinant Cdc25C enzyme (OMFP dephosphorylation, fluorescence)
Assay type: biochemical
Conditions: OMFP 500 μM, 4 hours at 30° C.
Experimental: The phosphatase activity of the MBP-Cdc25C protein is evaluated through its dephosphorylation of 3-O-methylfluorescein-phosphate (OMFP) to form 3-O-methylfluorescein (OMF), determining the fluorescence of the reaction product at 475 nm. This assay can be used to identify inhibitors of the recombinant Cdc25 enzyme. The preparation of the MBP-Cdc25C fusion protein is described in patent application PCT WO 01/44467.
The reaction is performed in 384-well plates in a final volume of 50 μl. The MBP-Cdc25C protein (prepared as described hereinabove) is stored in the following elution buffer: 20 mM Tris-HCl pH 7.4; 250 mM NaCl; 1 mM EDTA; 1 mM dithiothreitol (DTT); 10 mM maltose. It is diluted to a concentration of 60 μM in the following reaction buffer: 50 mM Tris-HCl pH 8.2; 50 mM NaCl; 1 mM DTT; 20% glycerol. The background noise is determined using with the buffer without addition of the enzyme. The products are tested at decreasing concentrations from 40 μM. The reaction is initiated by the addition of a solution OMFP to a final concentration of 500 μM (prepared immediately before use from a 12.5 mM stock solution in 100% DMSO (Sigma #M2629)). After 4 hours at 30° C. in a disposable 384-well plate, the fluorescence measured at OD 475 nm is read on a Victor^2 plate reader (EGG-Wallac). […]

Row | Structure (SMILES) | IC50 [µM]
1 | CN(CCNC(=O)N[C@@H]1CCc2ccccc2C1)CCNc1cc(N2CCCC2)nc(N2CCCC2)n1 [Example 11] | ≤ 10
2 | CCNC(=O)NCCN(C)CCNc1cc(N2CCCC2)nc(N2CCCC2)n1 [Example 18] | ≤ 10
